The target in test [1] is T1, cYFP-STR2 (STR2pro:cYFP-STR2, in M. truncatula roots) (Medicago truncatula) (UniProt A9YWR6).
T1 sequence: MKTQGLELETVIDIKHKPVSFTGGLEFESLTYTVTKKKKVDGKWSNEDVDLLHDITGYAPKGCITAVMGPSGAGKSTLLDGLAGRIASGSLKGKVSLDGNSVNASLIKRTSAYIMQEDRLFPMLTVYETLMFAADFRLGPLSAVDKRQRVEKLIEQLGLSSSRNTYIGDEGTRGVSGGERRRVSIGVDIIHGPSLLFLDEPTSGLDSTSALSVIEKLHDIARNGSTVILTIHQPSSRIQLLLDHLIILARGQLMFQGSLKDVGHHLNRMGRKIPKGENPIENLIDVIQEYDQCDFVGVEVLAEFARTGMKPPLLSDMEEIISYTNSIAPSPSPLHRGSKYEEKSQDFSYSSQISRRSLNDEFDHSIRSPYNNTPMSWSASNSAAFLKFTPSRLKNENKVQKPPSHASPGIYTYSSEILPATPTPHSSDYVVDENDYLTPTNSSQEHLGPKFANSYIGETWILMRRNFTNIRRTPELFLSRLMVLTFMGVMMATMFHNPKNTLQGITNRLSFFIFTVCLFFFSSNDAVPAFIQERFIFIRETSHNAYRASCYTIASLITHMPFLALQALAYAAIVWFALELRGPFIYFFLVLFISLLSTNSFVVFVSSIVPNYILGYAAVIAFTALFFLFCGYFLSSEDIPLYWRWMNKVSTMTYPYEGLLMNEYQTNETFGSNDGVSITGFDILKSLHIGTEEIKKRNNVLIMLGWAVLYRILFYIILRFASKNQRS
Put plainly: split reporter.

In test [2] the target is T2, nYFP-STR2 (STR2pro:nYFP-STR2, in M. truncatula roots) (Medicago truncatula) (UniProt A9YWR6).
T2 sequence: T1 sequence
The experiment in a line: split reporter.

No constants are given. Whether binding was seen depends on the method and setting. In cells and extracts the contact can be indirect. Some results given as binding are weak or reduced against the parent protein; the word gives no strength. Where a sequence is shown, tags or fusion partners need not be part of it.

Drawing on doi:10.1101/2025.08.07.669188, this text covers binding for two molecules.

B1: nYFP-STR1 (STR1pro:nYFP-STR1, in M. truncatula roots) (protein, UniProt D3GE74 1-817)
chain: MARLERDGTNKSLESLMDSHKPGGTTTNLNQLRTQKSIPGYGLEFTNLSYSIIKKQKKDGVWINKETYLLHDISGQAIKGEIMAIMGPSGAGKSTFLDALAGRIAKGSLQGSVRIDGKPVTTSYMKMVSSYVMQDDQLFPMLTVFETFMFAAEVRLPPSISRDEKKKRVHELLNKLGLQSATHTYIGDEGRRGVSGGERRRVSIGIEIIHKPSLLFLDEPTSGLDSTSAYSVVEKIKDIAQGGSIVLMTIHQPSFRIQMLLDKITILARGRLIYMGRPDALHTHLSGFGRPVPDGENNIEYLLDVITEYDQATVGLDPLVQYQHDGHKPDPAAMTPVPKPPRTPYRRNTPASKHMISLRSQGFTAGTPQPDSSQFGLDDDDNDDDENFDNSLERRSVQTSRNIVTSGVYPRLASQFYQDFSAKDFSVWLYNGVVGTPRRPPSWTPARTPGWTPGKTPLSGPRSFVSNQHSASYQDPYYIQKTNTVVGQSMDYSATSYAPSYEEFEIEEVLDEPDLGPKYANPWLREVAVLSWRTVLNVIRTPELFASREIVLTVMALVLSTIFKNLGDTTFIDINRLLNFYIFAVCLVFFSSNDAVPSFIMERFIFIRETSHNAYRASSYVISSLIVYLPFFAVQGLTFAVITKLMLHLKSNLFNFWMILFASLITTNAYVMLVSALVPSYITGYAVVIATTALFFLTCGFFLKRTQIPAYWKWLHYISAIKYPFEGLLINEFKNNRGCYSGNKADLSPGPLGDVKPSKHHNASLPLNCLLGEDVLSTMDITMESLWYDILILLAWGVLYRFFFYLVLRFYSKNERK
B1: the binding entry in test [1] is on record as “binds”.

B2: cYFP-STR1 (STR1pro:cYFP-STR1, in M. truncatula roots) (protein, UniProt D3GE74 1-817)
chain: B1 chain
As to B2, the binding result in test [2] is “binds”.
